{"sequences": {"note": "Protein sequences, listed by entry. Tags and fused reporters are not part of them.", "UniProt Q0JBA9, entry or part of it": "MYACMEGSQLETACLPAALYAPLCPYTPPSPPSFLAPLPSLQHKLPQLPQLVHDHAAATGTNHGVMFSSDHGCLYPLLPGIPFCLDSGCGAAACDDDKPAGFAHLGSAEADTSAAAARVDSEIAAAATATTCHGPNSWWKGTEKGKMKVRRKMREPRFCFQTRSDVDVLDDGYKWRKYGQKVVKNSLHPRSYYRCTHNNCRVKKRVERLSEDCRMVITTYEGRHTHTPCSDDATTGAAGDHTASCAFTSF"}, "source": "paper PMC7819943", "about": "“Rice protein-binding microarrays: a tool to detect cis-acting elements near promoter regions in rice”", "note": "The list shows a part of the results."}
{"target": "OsWRKY34 (Oryza sativa, UniProt Q0JBA9 1-250)", "experiment": "protein-binding microarray (RPBM); PBS, 2% BSA, 51.3 ng/ul salmon testes DNA, 50 uM zinc acetate, 200 nM TF, 25 C, 1 h; high values mean tight binding", "conditions": "protein: recombinant; tags: N-terminal polyhistidine and DsRed monomer fusion (pET32a); label: CyDye5-dUTP incorporated in the synthesized complementary strand; 3' TTTTT single-stranded linker to array surface; dsDNA, one strand shown", "summary_of_the_method": "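In PBS with 2% BSA, salmon testes DNA and 50 µM zinc acetate, 200 nM protein was incubated on a custom Agilent array at 25 °C for 1 h and then washed off. The array had been made double-stranded by primer extension with Cy5-dUTP and blocked with 2% BSA. The proteins were transcription factors fused N-terminally to polyhistidine and DsRed, expressed in E. coli BL21-CodonPlus and purified on Ni–NTA. The binding signal is per-feature fluorescence intensity (arbitrary units) from an Axon 4000B scanner.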"}
{"sequence": "GACTCGCCACCCCACCATCACCACCCAACCCAACCCAACCCGGAGTCACCTAGTGCAG", "binding signal": "13200 fluorescence intensity (a.u.)"}
{"sequence": "TTCTGCTTCTGGTTTTGGGCGATTCGGCGGTTGCTGGACTCGGAGTCACCTAGTGCAG", "binding signal": "11400 fluorescence intensity (a.u.)"}
{"sequence": "GGTAATTGGAAGCCTATGCACGTGGGCGGGGAGGCGTCGGCGGAGTCACCTAGTGCAG", "binding signal": "8330 fluorescence intensity (a.u.)"}
{"sequence": "TTAAGTCCTTGTGCTGTCCCTGTGATTTTGGTGCCAAAGACGGAGTCACCTAGTGCAG", "binding signal": "9250 fluorescence intensity (a.u.)"}
{"sequence": "GGGGAGGGGTTGGATGACCCTAACGGCGACGCGACGGGCGCGGAGTCACCTAGTGCAG", "binding signal": "11000 fluorescence intensity (a.u.)"}
{"sequence": "CCACCTCCGGTTGCCGCTCCGTCCACTCATGTCGTTCAGCCGGAGTCACCTAGTGCAG", "binding signal": "9460 fluorescence intensity (a.u.)"}
{"sequence": "ACAGTCGGACTGTGCAATTGGTTTTTTTCGGTCCACATTTCGGAGTCACCTAGTGCAG", "binding signal": "9720 fluorescence intensity (a.u.)"}
{"sequence": "AAAAACTTAAGTTGTGCCAAGACGCCACCTTTACTCACGCCGGAGTCACCTAGTGCAG", "binding signal": "8160 fluorescence intensity (a.u.)"}
{"sequence": "CCGGACCCTTGCTCGTCATTCGCTTGCGAACTGAAAACCACGGAGTCACCTAGTGCAG", "binding signal": "8930 fluorescence intensity (a.u.)"}
{"sequence": "AAAGTTTTGTGTCCATTCTTGAATCACTATCACTTTAGTCCGGAGTCACCTAGTGCAG", "binding signal": "9000 fluorescence intensity (a.u.)"}
{"sequence": "ACAGCGACCTTTTGCTGCAAAGCTTTGTTGGGTTTGGGCTCGGAGTCACCTAGTGCAG", "binding signal": "8470 fluorescence intensity (a.u.)"}
{"sequence": "ACTCCACCAGTCCACCCACTCTTTCCTTCCCGCATCTTCCCGGAGTCACCTAGTGCAG", "binding signal": "9330 fluorescence intensity (a.u.)"}
{"sequence": "CGATCGATGGGGATGTGGGGTGTGTTAGTTCCTTCGTCTTCGGAGTCACCTAGTGCAG", "binding signal": "9850 fluorescence intensity (a.u.)"}
{"sequence": "TAAACTTCCAACTTTTCCGTCACATCGTTTCAATTTCAACCGGAGTCACCTAGTGCAG", "binding signal": "8770 fluorescence intensity (a.u.)"}
{"sequence": "GCGAAAAAGCGGTGGTGGTGGTGGTGGTGCGGATTGAGGACGGAGTCACCTAGTGCAG", "binding signal": "13100 fluorescence intensity (a.u.)"}
{"sequence": "TGTATAATTTGTAATCACAATGGCGGCATATACTTCTATCCGGAGTCACCTAGTGCAG", "binding signal": "8160 fluorescence intensity (a.u.)"}
{"sequence": "CGATCAGAACGATTCGCTTGCTTCTTTCCCGGGTGTTAGTCGGAGTCACCTAGTGCAG", "binding signal": "10500 fluorescence intensity (a.u.)"}
{"sequence": "TTCATCCCTCAAGAGGATATCCCCTTGTTTCGTGCATGTTCGGAGTCACCTAGTGCAG", "binding signal": "8730 fluorescence intensity (a.u.)"}
{"sequence": "CATTTCTCAGCTTCTGCTCTCGTTTATAGTATGTTTTTTTCGGAGTCACCTAGTGCAG", "binding signal": "11200 fluorescence intensity (a.u.)"}
{"sequence": "TTCTCAAGAGCCCATATGTCATCAACTGGTTTCAATTTAACGGAGTCACCTAGTGCAG", "binding signal": "8040 fluorescence intensity (a.u.)"}
{"sequence": "CGTAAATTGCCATGTCTGTTCATCTTGCTTATCAGAACGGCGGAGTCACCTAGTGCAG", "binding signal": "9390 fluorescence intensity (a.u.)"}
{"sequence": "CCCCATATCTCATCTTCCATCACCAACAATCTCTCTAACCCGGAGTCACCTAGTGCAG", "binding signal": "9580 fluorescence intensity (a.u.)"}
{"sequence": "ACTACTTTTTTTGGGTTGATGTGCTTGAATTTGAAGAGAACGGAGTCACCTAGTGCAG", "binding signal": "11700 fluorescence intensity (a.u.)"}
{"sequence": "CCGAGCCGTAGGCAGCCCCATGTACTTCCATGCTATTTCTCGGAGTCACCTAGTGCAG", "binding signal": "9080 fluorescence intensity (a.u.)"}
{"sequence": "GCTCGTTGCCCTACTCTTTGCTCGGCTCGGGTGGGTCCCACGGAGTCACCTAGTGCAG", "binding signal": "9940 fluorescence intensity (a.u.)"}
{"sequence": "TTTAGTATATAAAAGATTATAGGGGAGGTTCATTACTTTCCGGAGTCACCTAGTGCAG", "binding signal": "8410 fluorescence intensity (a.u.)"}
{"sequence": "CCTCCGCTTCTTCGCCGCCGCCGCCATCCCGCCCTAGCGACGGAGTCACCTAGTGCAG", "binding signal": "9070 fluorescence intensity (a.u.)"}
{"sequence": "ATCTCTCTCATCTCCTCTCTCTCTCTCTCTCTCTTGTTTCCGGAGTCACCTAGTGCAG", "binding signal": "9260 fluorescence intensity (a.u.)"}
{"sequence": "GGATACATGTCTTCCCGTTTCGTAACCCATATTTTTCTAACGGAGTCACCTAGTGCAG", "binding signal": "10800 fluorescence intensity (a.u.)"}
{"sequence": "AGCCACCAACTCCGTCGTCGTGCCCTACCTATGTGATAGACGGAGTCACCTAGTGCAG", "binding signal": "10000 fluorescence intensity (a.u.)"}
{"sequence": "GTTGCTTGTGTTGTATATTATATATTTCTTTTACCATTCTCGGAGTCACCTAGTGCAG", "binding signal": "14700 fluorescence intensity (a.u.)"}
{"sequence": "GATCCAAATCCTGACTGCTCTCTTATACTCCATATTGCTCCGGAGTCACCTAGTGCAG", "binding signal": "9390 fluorescence intensity (a.u.)"}
{"sequence": "CCTAGCTAATTTCATCTCCCACGCCGAACGGAAACACATCCGGAGTCACCTAGTGCAG", "binding signal": "8300 fluorescence intensity (a.u.)"}
{"sequence": "AATATGTAGATTTATCTCGGTTTCTATTACCACATATTTTCGGAGTCACCTAGTGCAG", "binding signal": "10800 fluorescence intensity (a.u.)"}
{"sequence": "CAGTGTTCAGTGCCACCACCATCTTCTTCTTCTTCTTCTTCGGAGTCACCTAGTGCAG", "binding signal": "9740 fluorescence intensity (a.u.)"}
{"sequence": "TTAGTATAGCTGTATTCTTCCCAACTTCCTATTTTCCTCTCGGAGTCACCTAGTGCAG", "binding signal": "8540 fluorescence intensity (a.u.)"}
{"sequence": "TCGCTGCTCTGCCCTTTTCCCTTTTTTTTTCTTTCTTCATCGGAGTCACCTAGTGCAG", "binding signal": "10200 fluorescence intensity (a.u.)"}
{"sequence": "GGGAGAGGATAATGCTTTGATCAATCGGCTGCACTTAATTCGGAGTCACCTAGTGCAG", "binding signal": "8190 fluorescence intensity (a.u.)"}
{"sequence": "TTTGTTCTGTATTGGGCCTTTCCAACCTCGATCCCAACAACGGAGTCACCTAGTGCAG", "binding signal": "8192 fluorescence intensity (a.u.)"}
{"sequence": "CGTTTGTTGGGTGCGGCGGGCGGGGAGGAGCTCGTGAATGCGGAGTCACCTAGTGCAG", "binding signal": "19600 fluorescence intensity (a.u.)"}
{"sequence": "ATAGCACCTCGAAACACCAAACTATTGCTATTAACATTTTCGGAGTCACCTAGTGCAG", "binding signal": "9650 fluorescence intensity (a.u.)"}
{"sequence": "CCTCTCTCTCTCCAAATCTGTGGACATTTCACGCGCGCTCCGGAGTCACCTAGTGCAG", "binding signal": "10400 fluorescence intensity (a.u.)"}
